PubChem BioAssay AID652272 | Drosophila RNAi Screening Center – 2013

Assay: 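Genome-wide knock-down search for components of Hedgehog signalling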 (primary screen)
Cells: Drosophila clone 8 (Cl8) cells
Knock-down reagent: long dsRNA against Drosophila genes
Measured: 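Firefly light from a Hedgehog-responsive ptc promoter reporter and Renilla reference light, both read on a plate reader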
Scale: firefly Hh reporter signal: higher = more ptc reporter light; Renilla reference signal: higher = more Renilla control light
Active means: 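Hit when the z-score averaged over two replicates is under -2 or over +3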
Calls: active = hit: reporter lowered or raised; inactive = not a hit
In all, the deposit lists about 21,000 reagents; below is a random part of those that have a named target and a result. Over the whole deposit, 503 (2.4%) got an active call. 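Raw plate light values, not normalised; calls rest on replicate z-scores that were not deposited; hits include reporter decreases as well as increases.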 Unmarked entries are inactive. A plus sign joins genes that one reagent is predicted to hit. No sequences are given here. Not given: the amount of reagent, the time to read-out.

no.	Gene	DRSC id	firefly Hh reporter signal, replicate 1	firefly Hh reporter signal, replicate 2	firefly Hh reporter signal, replicate 3	Renilla reference signal, replicate 1	Renilla reference signal, replicate 2
1	Listericin	DRSC07334	1.06e5	59321		2765	4844
2	CG33288	DRSC11484	2.40e5			4650	
3	ranshi	DRSC16564	69513	92162		2459	5104
4	Elp5 (Elongator complex protein 5)	DRSC08547	77110	39430		2228	2454
5	CG6865	DRSC10732	1.19e5			2981	2317
6	enc (encore)	DRSC08716	61890	33973		1932	2149
7	CG10916	DRSC06012	72144	70352		3904	2891
8	CG4960	DRSC15684	5.51e5	85586		31284	3235
9	lgs (legless)	DRSC17152	1.21e5	60680		2880	2375
10	l(3)87Df (lethal (3) 87Df)	DRSC16982	1.27e5	1.29e5		4216	3329
11	CG1738	DRSC19772	59672	1.94e5		1689	9259
12	CG34377	DRSC13559	50453	2.31e5		11202	5144
13	CG34377	DRSC14708	8.42e5	1.85e5		41898	4912
14	CG34377	DRSC14709	8.18e5	1.76e5		42528	3000
15	CG34377	DRSC14710	8.30e5	1.90e5		39992	3600
16	CG34377	DRSC14711	7.95e5	2.08e5		40032	4800
17	boi	DRSC18425	90624	2.29e5		3274	8088
18	boi	DRSC18598	58636	2.07e5		2469	7041
19	CG4757	DRSC14130	51987	99936		1243	2781
20	Ptpa (Phosphotyrosyl phosphatase activator)	DRSC00776	1.21e5	53088		4980	2567
21	CG31077	DRSC13805	52106	1.63e5		14700	4876
22	CG17375	DRSC02614	1.27e5	81721		3252	6598

Not a retest: 5 of the entries above.
no.	Gene	DRSC id	firefly Hh reporter signal, replicate 1	firefly Hh reporter signal, replicate 2	firefly Hh reporter signal, replicate 3	Renilla reference signal, replicate 1	Renilla reference signal, replicate 2
3	ranshi	DRSC16564	69513	92162		2459	5104
4	Elp5 (Elongator complex protein 5)	DRSC08547	77110	39430		2228	2454
5	CG6865	DRSC10732	1.19e5			2981	2317
6	enc (encore)	DRSC08716	61890	33973		1932	2149
7	CG10916	DRSC06012	72144	70352		3904	2891

The results go on.
no.	Gene	DRSC id	firefly Hh reporter signal, replicate 1	firefly Hh reporter signal, replicate 2	firefly Hh reporter signal, replicate 3	Renilla reference signal, replicate 1	Renilla reference signal, replicate 2
23	CG17684	DRSC07724	1.46e5	3.23e5		4032	12587
24	CG17684	DRSC21166	68151	2.29e5		1568	9206
25	CG8563	DRSC10996	52722	35396		5712	2454
26	TfIIS (RNA polymerase II elongation factor)	DRSC03455	58832	39719		2512	1699
27	CG18179	DRSC10303	34710	43965	47801	3572	3035
28	Mos (Mos oncogene)	DRSC07258	55194	46076		1698	3786
29	CG13108	DRSC02206	75984	36149		2256	3704
30	ArgRS (Arginyl-tRNA synthetase)	DRSC20138	74613	1.97e5		3276	8593
31	Wnt2 (Wnt oncogene analog 2)	DRSC05160	1.25e5	2.92e5		3031	10912
32	Wnt2 (Wnt oncogene analog 2)	DRSC07574	1.14e5	56195		2964	4172
33	CalpA (Calpain-A)	DRSC07352	89914	57891		2416	4176
34	Pka-C2 (Protein kinase, cAMP-dependent, catalytic subunit 2)	DRSC16790	36056	57333		1629	2579
35	CG11722	DRSC14358	1.40e5	1.13e5		4390	3340
36	Actbeta (Activin-beta)	DRSC17185	6.37e5	2.55e5		33782	5808
37	Actbeta (Activin-beta)	DRSC17217	71333	1.74e5		2050	6984
38	fray (frayed)	DRSC16950	6.50e5	98467		27993	2768
39	pyr (pyramus)	DRSC06319	1.52e5	3.71e5	94080	3624	3540
40	Rep (Rab escort protein)	DRSC07526	97402	66874		4409	3000
41	CG14711 + Zaf1	DRSC14934	1.02e5	1.45e5		3616	12756
42	Coq4 + frc	DRSC10381	99586			2101	3373
43	Coq4 + frc	DRSC10382	1.11e5			5683	3543
44	CG13003	DRSC19522	98331	1.97e5		2344	7127
45	Pten (Phosphatase and tensin homolog)	DRSC03402	85181	71025		2125	5453
46	Unc-115b + p24-2	DRSC16492	1.03e5	64116		4209	2333
47	CG13895	DRSC08365	90640	63562		3494	4433
48	lft (lowfat)	DRSC02236	68070	67207		2298	6475
49	CG12929	DRSC06242	1.41e5	93234		3488	7114
50	cer (crammer)	DRSC05992	1.16e5	74544		3025	5634
51	pyx (pyrexia)	DRSC08510	96443	53072		2668	3657
52	pyx (pyrexia)	DRSC08511	58800	29603		2187	2870
53	CG15219	DRSC03715	93250	1.00e5		1866	6896
54	Or85b (Odorant receptor 85b)	DRSC16765	63040	1.07e5		1243	3308
55	CG33791 + CG12105 + CG18170	DRSC08387	95969	1.11e5		5092	4667
56	lbk (lambik)	DRSC07178	1.66e5	99863		6675	4012
57	Ugt49B2 (UDP-glycosyltransferase family 49 member B2)	DRSC16049	5.23e5	1.81e5		24315	3751
